Test results from US11980645B2, “Bile acids and use in disease treatment” (The Regents of the University of California, priority 2019, dated 2024).

Assay: Targeted MS quantification of novel conjugated bile acids in SPF mouse gut samples
Type: in vivo
Conditions: endogenous level; for Mean concentration in cecum / Mean concentration in colon / Mean concentration in ileum / Mean concentration in jejunum: SPF mice (n = 4)

## C[C@H](CCC(=O)N[C@@H](Cc1ccccc1)C(=O)O)[C@H]1CC[C@H]2[C@@H]3[C@H](O)C[C@@H]4C[C@H](O)CC[C@]4(C)[C@H]3C[C@H](O)[C@]12C [Phe-chol, phenylalanocholic acid]
  Mean concentration in cecum: 4.7 nmol/g tissue
  Mean concentration in colon: 11.6 nmol/g tissue
  Mean concentration in ileum: 83.6 nmol/g tissue
  Mean concentration in jejunum: 147.0 nmol/g tissue
Listed as Phe
  Mean concentration in cecum: 4.74 nmol/g tissue
  Mean concentration in colon: 11.61 nmol/g tissue
  Mean concentration in ileum: 83.56 nmol/g tissue
  Mean concentration in jejunum: 147 nmol/g tissue
SPF mice
  highest concentration in a single jejunum sample: 447.2 nmol/g tissue

## C[C@H](CCC(=O)N[C@@H](Cc1ccc(O)cc1)C(=O)O)[C@H]1CC[C@H]2[C@@H]3[C@H](O)C[C@@H]4C[C@H](O)CC[C@]4(C)[C@H]3C[C@H](O)[C@]12C [Tyr-chol, tyrosocholic acid]
  Mean concentration in cecum: <LOD
  Mean concentration in colon: <LOD
  Mean concentration in ileum: 56.03 nmol/g tissue
  Mean concentration in jejunum: 114.09 nmol/g tissue
